## Primary screen of a compound library

Source: ChEMBL document CHEMBL3988442, “University of Dundee, Small-Polar-MMV Screening Library” (2021).

A: 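Phenotypic screen: M. tuberculosis growth, cholesterol and DPPC medium, 4 days; the read-out is not stated. Concentration: 500 µM. Direction is inferred from retests: higher values go with more growth inhibition. About 18,000 compounds were tested under these conditions; 5% (about 900) showed 50% or more at least once.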
B: 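Phenotypic screen: M. tuberculosis growth, glucose 7H9 medium, 3 days; the read-out is not stated. Compounds at 500 µM. Higher reads as more growth inhibition (inferred: compounds with an IC50 in retests scored well above the rest). Of about 18,000 compounds tested this way, about 1,400 (7.9%) reached 50% or more in at least one test.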

The filed quantity is “Percent Effect” (%).
How 0% and 100% were set is not recorded. Most values in the screen are low, and negative values occur.
This is an unselected part of the compounds tested.

Compound,A,B
CN(C)S(=O)(=O)c1ccc(C(=O)Nc2nncs2)o1,9.102,9.163
N[C@H]1C[C@@H](c2cc(NCCc3cc[nH]n3)ncn2)C1,-2.349,0.5338
Cc1occc1C(=O)N1CCCC2(CC1)CNC(=O)O2 (stereo not shown),-18.49,-3.498
CN(C)C1(CNC(=O)Cc2cccnc2)CCOCC1,-6.103,27.98
COCCNC(=O)C(C)S(=O)(=O)Cc1cccc(Br)c1 (stereo not shown),-18.23,13.54
COc1ccc(CSc2nnc(N)[nH]2)c(Cl)c1,37.34,36.95
Fc1ccc(C2CCCCN2)nc1 (stereo not shown),-1.545,10.21
CCN(Cc1nc(-c2ccc(=O)[nH]c2)no1)C1CC1,17.14,15.09
O=C(NCCCNCc1cccnc1)c1ccc(Cl)s1,20.63,39.52
CCS(=O)(=O)NCC(N)c1ccc(C(C)C)cc1 (stereo not shown),67.41,74.45
c1cc2c(cc1C1=NN=C(NC3CC3)SC1)OCCO2,80.64,82.76
COc1ccc(NC(C)CCn2cncn2)cn1 (stereo not shown),-890.1,-1077
O=C1NCCc2ccc(OC(F)(F)F)cc21,40.34,34.98
O=S(=O)(CCN1CCN(CCO)CC1)C(F)(F)F,32.8,-1.787
Cc1ccc(C(C)NC(=O)CCNS(C)(=O)=O)o1 (stereo not shown),-11.79,-1.049
Cc1cccc2[nH]c(CN)nc12,36.26,48
NS(=O)(=O)c1cccnc1NC1CCc2ccccc21 (stereo not shown),5.658,6.034
NCCc1cccc(O)c1,8.055,13.33
c1cncc(N2CCCCC2)c1,-13.65,-0.7206
C=C(C)CNC(=O)Nc1ccc(-n2cnnn2)c(C)c1,-19.37,-3.656
CNCc1cc(C(F)(F)F)nn1C,6.166,9.409
O=C(CCCc1ccccc1)N1CCNCC1,6.055,8.679
CCOc1ccc(Cl)cc1CCNS(=O)(=O)N(C)C,89.58,90.41
CC(C)OCCCC(=O)N1CCCC(C)(O)C1 (stereo not shown),-5.324,-1.178
CC(C)CN1CCC(NCCSc2nnnn2C)CC1,4.069,4.744
O=C(c1ccc(-n2ccnc2)cc1)N1CCOCC1,-2.198,34.22
CN1CCCC1CN1CCN(c2nc[nH]n2)CC1 (stereo not shown),20.98,9.15
NC1CCCc2c(F)cccc21 (stereo not shown),15.63,31.98
CCOCCC(=O)N(C)Cc1cc(C(C)C)no1,49.98,30.11
COCC(=O)Nc1cccc(CNC(C)=O)c1,-0.1948,11.66
CC(C)CC(O)C(=O)N1CCN(c2cccnc2)CC1 (stereo not shown),32.45,52.96
NC(=O)CC1Nc2ccccc2NC1=O (stereo not shown),-4.73,-7.309
CCNC(=O)c1noc(-c2ccc[nH]c2=O)n1,-17.35,-13.59
CC1(NS(=O)(=O)c2ccc(Cl)cc2F)CCS(=O)(=O)C1 (stereo not shown),11.47,16.81
CN1CCN(CC2CC23CCNCC3)CC1 (stereo not shown),-16.69,-9.359
O=C(c1cnsn1)N1CCN(c2ccccn2)CC1,59.63,70.39
COCCNC(=O)COC(=O)c1ccc2ncsc2c1,-13.09,26.36
NCC1CCN(CCc2ccccc2)C1 (stereo not shown),64.95,62.23
Cc1ocnc1CNC(=O)C1CC=CC1,6.845,6.262
COC1(CN)CCOC1 (stereo not shown),2.462,1.79
O=C1OCCN1C1CCNC1 (stereo not shown),-9.359,-11.1
CS(=O)(=O)N(c1ccccc1)C1CSC1,2.204,3.804
Cc1cccnc1NCCNC(=O)CCNS(C)(=O)=O,-4.628,-11.18
Cn1c(N)nc2cc(F)ccc21,-5.291,4.952
COc1c(C)cc(Br)cc1C(=O)Nc1nnn(C)n1,58.94,69.74
O=C(Oc1nsnc1N1CCOCC1)c1ccccc1,-9.24,-4.035
CN(CC1CC1)c1ccc(S(C)(=O)=O)cc1S(C)(=O)=O,-10.06,18.16
CCC(CC)C(=O)N1C[C@@H](CO)[C@H](N(C)C)C1,-4.808,-19.79
CO[C@@H]1CN[C@@H](C(=O)NCCCc2cccc(F)c2)C1,-2.297,45.5

Some entries from above, unchanged:

- COCCNC(=O)COC(=O)c1ccc2ncsc2c1 : A: -13.09%; B: 26.36%
- COc1c(C)cc(Br)cc1C(=O)Nc1nnn(C)n1 : A: 58.94%; B: 69.74%
- COCC(=O)Nc1cccc(CNC(C)=O)c1 : A: -0.1948%; B: 11.66%
- CO[C@@H]1CN[C@@H](C(=O)NCCCc2cccc(F)c2)C1 : A: -2.297%; B: 45.5%
- CN(C)C1(CNC(=O)Cc2cccnc2)CCOCC1 : A: -6.103%; B: 27.98%
- c1cc2c(cc1C1=NN=C(NC3CC3)SC1)OCCO2 : A: 80.64%; B: 82.76%